Experimental findings from US20150335707A1 are described below.

Sequences of proteins named here, by UniProt entry; tags and fusion partners are left off. Residues count along the entry.
UniProt P06869, residues 21-433: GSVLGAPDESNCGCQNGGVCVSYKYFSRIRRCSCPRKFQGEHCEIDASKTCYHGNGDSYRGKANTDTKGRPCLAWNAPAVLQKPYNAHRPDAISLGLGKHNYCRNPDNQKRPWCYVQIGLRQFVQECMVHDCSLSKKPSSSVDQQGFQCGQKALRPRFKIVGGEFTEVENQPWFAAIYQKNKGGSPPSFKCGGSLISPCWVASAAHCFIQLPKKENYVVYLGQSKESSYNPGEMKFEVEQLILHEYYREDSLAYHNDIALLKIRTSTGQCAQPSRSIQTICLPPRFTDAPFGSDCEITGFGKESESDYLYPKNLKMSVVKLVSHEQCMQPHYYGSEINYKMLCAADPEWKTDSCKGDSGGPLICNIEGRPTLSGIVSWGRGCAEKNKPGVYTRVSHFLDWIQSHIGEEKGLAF

Results are given in words; binding and its absence hold for the method and conditions named. For part of these data: Binding seen in cells or lysates may run through a third protein. Some results given as binding are weak or reduced against the parent protein; the word gives no strength. For part of these data: Where a sequence is shown, tags or fusion partners need not be part of it.

For test [1], the target named is uPA in kidney lysate (UniProt P06869). The test can be described thus: ligand blot: kidney lysate separated by non-denaturing PAGE, overlaid with His-Slurp1, probed with anti-Slurp1, re-probed with anti-uPA.
Test [2] has the same target. The test can be described thus: pull-down: His-Slurp1 on Ni-ion resin incubated with kidney lysate, bound uPA detected by anti-uPA immunoblot. For orientation: In western blotting, separated proteins are transferred to a membrane and probed.
For test [3], the target named is urokinase-type plasminogen activator (uPA) (UniProt P06869). The test can be described thus: ligand blots, ELISA and pull-down assays.
The target is the same in test [4]. The test can be described thus: summary of FIGS. 13-17.
In test [5] the target is MBP-uPA fusion protein (recombinant, expressed in E. coli, partially purified on amylose column) (UniProt P06869). The test can be described thus: ELISA: MBP-Slurp1 coated, MBP-uPA layered, detected with anti-uPA antibody; MBP-coated wells as control. In general terms: ELISA stands for enzyme-linked immunosorbent assay.
Test [6] has as its target cleaved, partially purified uPA (UniProt P06869). The test can be described thus: ELISA: MBP-Slurp1 coated, cleaved uPA layered, detected with anti-uPA antibody; MBP-coated wells as control.

B1: 6× His-Slurp1 (recombinant, expressed in E. coli, partially purified on nickel-ion column) (ligand, UniProt Q9Z0K7 23-110, looked up, not shown: small tags and cut ends)
chain: FRCYTCEQPTAINSCKNIAQCKMEDTACKTVLETVEAAFPFNHSPMVTRSCSSSCLATDPDGIGVAHPVFCCFRDLCNSGFPGFVAGL
Consider B1, for which the binding result with uPA in kidney lysate [1] and with uPA in kidney lysate [2] was “binds” throughout.

B2: Slurp1 (secreted Ly-6/urokinase plasminogen activator receptor-related protein-1) (ligand, UniProt Q9Z0K7 23-110, looked up)
chain: FRCYTCEQPTAINSCKNIAQCKMEDTACKTVLETVEAAFPFNHSPMVTRSCSSSCLATDPDGIGVAHPVFCCFRDLCNSGFPGFVAGL
Consider B2, for which the binding result in test [3] and in test [4] was “binds” each time.

B3: MBP-Slurp1 fusion protein (expressed in E. coli, purified through amylose resin) (protein, UniProt Q9Z0K7 23-110, looked up, not shown: large carriers)
chain: FRCYTCEQPTAINSCKNIAQCKMEDTACKTVLETVEAAFPFNHSPMVTRSCSSSCLATDPDGIGVAHPVFCCFRDLCNSGFPGFVAGL
B3: the binding entry in test [5] and in test [6] was “binds” throughout.
